Measured values: publication PMC10954485
These are yes or no findings as the source states them, for the method shown. Binding seen in cells or lysates may run through a third protein. Here binding means that the protein was enriched with, or labelled near, the bait; the list need not be complete.

Sequences of proteins named here, by UniProt entry; tags and fusion partners are left off. Residues count along the entry.
UniProt P70302, residues 23-685: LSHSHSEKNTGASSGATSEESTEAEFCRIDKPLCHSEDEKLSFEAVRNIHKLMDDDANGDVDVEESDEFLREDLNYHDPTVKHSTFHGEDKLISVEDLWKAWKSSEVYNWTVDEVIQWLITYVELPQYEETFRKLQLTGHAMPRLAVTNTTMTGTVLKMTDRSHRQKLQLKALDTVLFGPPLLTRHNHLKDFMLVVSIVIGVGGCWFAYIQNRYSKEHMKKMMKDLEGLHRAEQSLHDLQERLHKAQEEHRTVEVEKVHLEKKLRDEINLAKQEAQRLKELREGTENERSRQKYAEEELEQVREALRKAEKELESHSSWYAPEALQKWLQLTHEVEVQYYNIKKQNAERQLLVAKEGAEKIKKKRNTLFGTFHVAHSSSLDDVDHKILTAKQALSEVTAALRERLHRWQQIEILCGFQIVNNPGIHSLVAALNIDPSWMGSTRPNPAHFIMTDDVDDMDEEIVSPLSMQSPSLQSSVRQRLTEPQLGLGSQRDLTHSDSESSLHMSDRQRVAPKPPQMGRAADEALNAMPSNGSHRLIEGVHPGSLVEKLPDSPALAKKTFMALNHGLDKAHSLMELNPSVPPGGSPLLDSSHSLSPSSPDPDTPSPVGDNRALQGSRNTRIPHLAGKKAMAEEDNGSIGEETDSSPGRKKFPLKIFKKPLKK
UniProt Q9BXW9: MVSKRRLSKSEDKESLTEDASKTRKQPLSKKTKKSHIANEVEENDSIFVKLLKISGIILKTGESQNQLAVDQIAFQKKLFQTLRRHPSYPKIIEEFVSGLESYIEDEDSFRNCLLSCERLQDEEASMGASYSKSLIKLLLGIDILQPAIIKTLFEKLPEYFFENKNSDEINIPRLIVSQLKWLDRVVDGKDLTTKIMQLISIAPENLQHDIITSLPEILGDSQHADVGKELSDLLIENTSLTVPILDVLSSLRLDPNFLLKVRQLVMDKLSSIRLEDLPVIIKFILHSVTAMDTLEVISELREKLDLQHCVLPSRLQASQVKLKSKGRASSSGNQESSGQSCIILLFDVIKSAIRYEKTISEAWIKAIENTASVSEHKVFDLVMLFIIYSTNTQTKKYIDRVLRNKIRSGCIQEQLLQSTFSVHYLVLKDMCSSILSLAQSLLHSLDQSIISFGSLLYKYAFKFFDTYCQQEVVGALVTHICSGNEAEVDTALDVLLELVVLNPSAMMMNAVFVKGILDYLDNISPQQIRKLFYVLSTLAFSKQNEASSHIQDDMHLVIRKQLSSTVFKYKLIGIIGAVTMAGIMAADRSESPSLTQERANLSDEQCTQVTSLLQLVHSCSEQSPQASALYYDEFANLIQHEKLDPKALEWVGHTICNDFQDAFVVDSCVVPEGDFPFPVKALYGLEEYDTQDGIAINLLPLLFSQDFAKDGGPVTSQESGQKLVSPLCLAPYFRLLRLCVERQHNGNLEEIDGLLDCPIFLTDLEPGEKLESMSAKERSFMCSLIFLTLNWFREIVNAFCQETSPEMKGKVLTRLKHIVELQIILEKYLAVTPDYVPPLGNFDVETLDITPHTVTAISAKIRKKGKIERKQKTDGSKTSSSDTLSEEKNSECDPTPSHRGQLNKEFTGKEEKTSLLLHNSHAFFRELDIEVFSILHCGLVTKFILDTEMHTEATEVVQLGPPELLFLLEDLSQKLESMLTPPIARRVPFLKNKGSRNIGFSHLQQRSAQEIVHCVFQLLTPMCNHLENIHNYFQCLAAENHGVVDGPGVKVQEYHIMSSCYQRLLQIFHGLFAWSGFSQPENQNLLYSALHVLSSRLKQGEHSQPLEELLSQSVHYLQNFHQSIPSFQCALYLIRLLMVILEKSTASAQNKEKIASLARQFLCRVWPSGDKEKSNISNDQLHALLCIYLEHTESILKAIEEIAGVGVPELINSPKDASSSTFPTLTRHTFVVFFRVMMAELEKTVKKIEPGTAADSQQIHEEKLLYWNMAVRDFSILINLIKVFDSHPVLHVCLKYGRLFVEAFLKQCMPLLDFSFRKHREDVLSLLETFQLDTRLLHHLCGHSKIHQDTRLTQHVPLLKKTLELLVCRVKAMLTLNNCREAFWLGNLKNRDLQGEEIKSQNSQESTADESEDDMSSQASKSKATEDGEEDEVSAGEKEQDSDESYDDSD
UniProt Q9HAV4: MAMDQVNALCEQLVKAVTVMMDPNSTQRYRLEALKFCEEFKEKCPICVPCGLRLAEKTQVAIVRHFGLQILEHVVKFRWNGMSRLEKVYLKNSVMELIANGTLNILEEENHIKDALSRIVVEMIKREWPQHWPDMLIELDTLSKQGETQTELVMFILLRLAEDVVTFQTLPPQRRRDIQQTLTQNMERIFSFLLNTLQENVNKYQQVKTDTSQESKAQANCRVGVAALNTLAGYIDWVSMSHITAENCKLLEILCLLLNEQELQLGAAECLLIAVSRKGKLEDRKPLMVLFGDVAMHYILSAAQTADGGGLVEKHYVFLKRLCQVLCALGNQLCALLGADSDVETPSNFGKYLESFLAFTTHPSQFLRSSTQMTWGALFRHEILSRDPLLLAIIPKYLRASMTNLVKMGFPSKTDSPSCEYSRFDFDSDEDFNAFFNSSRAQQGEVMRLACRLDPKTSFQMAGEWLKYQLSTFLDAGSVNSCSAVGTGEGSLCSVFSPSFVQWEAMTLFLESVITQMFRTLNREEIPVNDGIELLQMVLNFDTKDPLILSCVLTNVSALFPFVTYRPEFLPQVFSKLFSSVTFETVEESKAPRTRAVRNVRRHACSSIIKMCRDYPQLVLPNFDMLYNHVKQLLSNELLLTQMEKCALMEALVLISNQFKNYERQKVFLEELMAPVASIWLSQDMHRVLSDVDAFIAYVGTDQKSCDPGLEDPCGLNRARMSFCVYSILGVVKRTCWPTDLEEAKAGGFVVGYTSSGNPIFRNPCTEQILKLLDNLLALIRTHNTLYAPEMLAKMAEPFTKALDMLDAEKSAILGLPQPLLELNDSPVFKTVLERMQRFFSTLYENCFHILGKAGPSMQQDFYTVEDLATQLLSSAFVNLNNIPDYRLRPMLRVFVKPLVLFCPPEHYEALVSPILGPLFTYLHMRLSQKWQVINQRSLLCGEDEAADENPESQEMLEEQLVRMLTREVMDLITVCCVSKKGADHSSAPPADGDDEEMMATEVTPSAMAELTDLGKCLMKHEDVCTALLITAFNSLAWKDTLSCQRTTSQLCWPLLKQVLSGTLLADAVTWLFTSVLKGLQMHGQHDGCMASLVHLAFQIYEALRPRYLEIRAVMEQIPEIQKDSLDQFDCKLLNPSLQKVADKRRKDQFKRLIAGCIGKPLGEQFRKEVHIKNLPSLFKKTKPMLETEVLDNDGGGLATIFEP
UniProt O14980: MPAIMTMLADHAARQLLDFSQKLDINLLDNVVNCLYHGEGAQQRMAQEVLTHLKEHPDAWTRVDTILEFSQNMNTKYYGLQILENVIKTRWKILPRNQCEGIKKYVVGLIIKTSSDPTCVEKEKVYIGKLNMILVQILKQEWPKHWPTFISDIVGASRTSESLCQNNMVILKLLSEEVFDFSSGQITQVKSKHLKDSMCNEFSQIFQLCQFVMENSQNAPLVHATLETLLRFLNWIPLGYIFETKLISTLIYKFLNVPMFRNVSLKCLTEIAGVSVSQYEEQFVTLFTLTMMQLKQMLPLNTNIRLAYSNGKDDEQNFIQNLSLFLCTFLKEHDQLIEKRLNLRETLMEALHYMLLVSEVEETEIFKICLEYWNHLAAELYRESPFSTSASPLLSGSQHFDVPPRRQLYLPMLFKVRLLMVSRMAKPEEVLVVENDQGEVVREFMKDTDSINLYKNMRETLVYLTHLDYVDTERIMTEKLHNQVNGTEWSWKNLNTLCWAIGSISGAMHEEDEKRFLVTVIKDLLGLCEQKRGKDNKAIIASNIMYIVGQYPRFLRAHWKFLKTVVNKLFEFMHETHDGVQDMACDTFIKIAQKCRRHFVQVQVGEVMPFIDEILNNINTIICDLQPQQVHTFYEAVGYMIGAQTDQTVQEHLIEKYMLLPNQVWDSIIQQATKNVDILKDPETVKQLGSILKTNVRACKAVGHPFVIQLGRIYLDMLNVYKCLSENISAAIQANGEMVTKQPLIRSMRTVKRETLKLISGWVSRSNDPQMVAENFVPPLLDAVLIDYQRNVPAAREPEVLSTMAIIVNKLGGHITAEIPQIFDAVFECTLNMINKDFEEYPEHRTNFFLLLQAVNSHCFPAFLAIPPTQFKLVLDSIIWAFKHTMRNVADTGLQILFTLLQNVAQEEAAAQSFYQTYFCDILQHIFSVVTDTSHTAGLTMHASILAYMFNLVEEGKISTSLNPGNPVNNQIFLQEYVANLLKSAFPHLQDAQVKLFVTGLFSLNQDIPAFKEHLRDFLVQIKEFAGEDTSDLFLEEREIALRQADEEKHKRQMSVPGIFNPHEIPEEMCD
UniProt O15397: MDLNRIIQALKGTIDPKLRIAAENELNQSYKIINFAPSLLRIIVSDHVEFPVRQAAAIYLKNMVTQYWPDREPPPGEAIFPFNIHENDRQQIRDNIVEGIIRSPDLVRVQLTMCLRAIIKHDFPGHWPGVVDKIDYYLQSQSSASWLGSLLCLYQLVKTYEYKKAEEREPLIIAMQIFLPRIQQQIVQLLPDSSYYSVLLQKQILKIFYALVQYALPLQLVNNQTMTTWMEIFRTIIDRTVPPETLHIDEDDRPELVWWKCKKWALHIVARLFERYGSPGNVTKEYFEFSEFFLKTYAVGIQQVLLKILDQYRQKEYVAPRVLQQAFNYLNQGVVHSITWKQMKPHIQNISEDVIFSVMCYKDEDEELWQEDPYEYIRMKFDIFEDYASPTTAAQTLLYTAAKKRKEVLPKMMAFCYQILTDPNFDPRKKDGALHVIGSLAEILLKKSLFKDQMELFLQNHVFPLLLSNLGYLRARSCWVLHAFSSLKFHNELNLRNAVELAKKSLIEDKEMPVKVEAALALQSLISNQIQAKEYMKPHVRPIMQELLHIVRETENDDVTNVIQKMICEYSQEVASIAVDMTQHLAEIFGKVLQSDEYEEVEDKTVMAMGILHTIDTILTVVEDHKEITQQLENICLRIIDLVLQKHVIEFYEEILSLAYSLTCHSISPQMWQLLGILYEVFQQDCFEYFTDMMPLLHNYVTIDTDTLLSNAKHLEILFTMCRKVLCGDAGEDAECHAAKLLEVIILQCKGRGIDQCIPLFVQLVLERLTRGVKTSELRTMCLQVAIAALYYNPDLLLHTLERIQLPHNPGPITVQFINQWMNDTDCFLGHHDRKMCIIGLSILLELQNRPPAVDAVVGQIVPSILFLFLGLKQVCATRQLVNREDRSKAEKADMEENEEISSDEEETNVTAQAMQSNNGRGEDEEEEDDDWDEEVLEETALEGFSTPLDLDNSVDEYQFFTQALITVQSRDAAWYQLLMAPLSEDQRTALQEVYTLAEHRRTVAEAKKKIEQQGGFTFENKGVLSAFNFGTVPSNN

Biological target: STIM1 (full-length)-GFP (mouse STIM1, RefSeq accession NP_033313.2) (mouse) (UniProt P70302)
Test: affinity purification with mass spectrometry; STIM1-GFP pulled down with GFP-Trap agarose beads from 1 mg clarified HEK293 lysate (1% NP-40 buffer, 1 h at 4°C, washes with 0.15 M NaCl), on-bead digestion, label-free quantification against GFP only

binding	Molecule
binds	IPO11 (protein, UniProt Q9UI26 1-975) MDLNSASTVVLQVLTQATSQDTAVLKPAEEQLKQWETQPGFYSVLLNIFTNHTLDINVRWLAVLYFKHGIDRYWRRVAPHALSEEEKTTLRAGLITNFNEPINQIATQIAVLIAKVARLDCPRQWPELIPTLIESVKVQDDLRQHRALLTFYHVTKTLASKRLAADRKLFYDLASGIYNFACSLWNHHTDTFLQEVSSGNEAAILSSLERTLLSLKVLRKLTVNGFVEPHKNMEVMGFLHGIFERLKQFLECSRSIGTDNVCRDRLEKTIILFTKVLLDFLDQHPFSFTPLIQRSLEFSVSYVFTEVGEGVTFERFIVQCMNLIKMIVKNYAYKPSKNFEDSSPETLEAHKIKMAFFTYPTLTEICRRLVSHYFLLTEEELTMWEEDPEGFTVEETGGDSWKYSLRPCTEVLFIDIFHEYNQTLTPVLLEMMQTLQGPTNVEDMNALLIKDAVYNAVGLAAYELFDSVDFDQWFKNQLLPELQVIHNRYKPLRRRVIWLIGQWISVKFKSDLRPMLYEAICNLLQDQDLVVRIETATTLKLTVDDFEFRTDQFLPYLETMFTLLFQLLQQVTECDTKMHVLHVLSCVIERVNMQIRPYVGCLVQYLPLLWKQSEEHNMLRCAILTTLIHLVQGLGADSKNLYPFLLPVIQLSTDVSQPPHVYLLEDGLELWLVTLENSPCITPELLRIFQNMSPLLELSSENLRTCFKIINGYIFLSSTEFLQTYAVGLCQSFCELLKEITTEGQVQVLKVVENALKVNPILGPQMFQPILPYVFKGIIEGERYPVVMSTYLGVMGRVLLQNTSFFSSLLNEMAHKFNQEMDQLLGNMIEMWVDRMDNITQPERRKLSALALLSLLPSDNSVIQDKFCGIINISVEGLHDVMTEDPETGTYKDCMLMSHLEEPKVTEDEEPPTEQDKRKKMLALKDPVHTVSLQQFIYEKLKAQQEMLGEQGFQSLMETVDTEIVTQLQEFLQGF
binds	XPOT (protein, UniProt O43592 1-962) MDEQALLGLNPNADSDFRQRALAYFEQLKISPDAWQVCAEALAQRTYSDDHVKFFCFQVLEHQVKYKYSELTTVQQQLIRETLISWLQAQMLNPQPEKTFIRNKAAQVFALLFVTEYLTKWPKFFFDILSVVDLNPRGVDLYLRILMAIDSELVDRDVVHTSEEARRNTLIKDTMREQCIPNLVESWYQILQNYQFTNSEVTCQCLEVVGAYVSWIDLSLIANDRFINMLLGHMSIEVLREEACDCLFEVVNKGMDPVDKMKLVESLCQVLQSAGFFSIDQEEDVDFLARFSKLVNGMGQSLIVSWSKLIKNGDIKNAQEALQAIETKVALMLQLLIHEDDDISSNIIGFCYDYLHILKQLTVLSDQQKANVEAIMLAVMKKLTYDEEYNFENEGEDEAMFVEYRKQLKLLLDRLAQVSPELLLASVRRVFSSTLQNWQTTRFMEVEVAIRLLYMLAEALPVSHGAHFSGDVSKASALQDMMRTLVTSGVSSYQHTSVTLEFFETVVRYEKFFTVEPQHIPCVLMAFLDHRGLRHSSAKVRSRTAYLFSRFVKSLNKQMNPFIEDILNRIQDLLELSPPENGHQSLLSSDDQLFIYETAGVLIVNSEYPAERKQALMRNLLTPLMEKFKILLEKLMLAQDEERQASLADCLNHAVGFASRTSKAFSNKQTVKQCGCSEVYLDCLQTFLPALSCPLQKDILRSGVRTFLHRMIICLEEEVLPFIPSASEHMLKDCEAKDLQEFIPLINQITAKFKIQVSPFLQQMFMPLLHAIFEVLLRPAEENDQSAALEKQMLRRSYFAFLQTVTGSGMSEVIANQGAENVERVLVTVIQGAVEYPDPIAQKTCFIILSKLVELWGGKDGPVGFADFVYKHIVPACFLAPLKQTFDLADAQTVLALSECAVTLKTIHLKRGPECVQYLQQEYLPSLQVAPEIIQEFCQALQQPDAKVFKNYLKVFFQRAKP

Biological target: STIM1 (full-length)-GFP (mouse STIM1, RefSeq accession NP_033313.2) (mouse) (UniProt P70302)
Test: as above
Remark: another data set of the same source

Molecule	binding
Fanconi anemia (FA) protein FANCD2 (from UniProt Q9BXW9 1-1451)	binds
FANCI (from UniProt Q9NVI1 1-1328)	binds
XPO5 (from UniProt Q9HAV4 1-1204)	binds
nuclear pore complex protein NUP205 (from UniProt Q92621 1-2012)	binds

Second part, the molecule after the results:

binding	Molecule
binds	XPO1 (from UniProt O14980 1-1071)
binds	IPO8 (from UniProt O15397 1-1037)
